Paper PMC9860392, “The N-terminal domain of human mitochondrial helicase Twinkle has DNA-binding activity crucial for supporting processive DNA synthesis by polymerase γ” (The Journal of Biological Chemistry, 2022)

Assays:
[1] = molecular target: T1, Twinkle CTD (C-terminal domain plus linker) (Homo sapiens) (UniProt Q96RR1); test: fluorescence anisotropy; conditions: 50 mM NaCl, 50 mM Tris acetate pH 7.5, 10% glycerol, 0.05% Tween-20, 0.5 mM DTT, 0 or 50 mM NaCl, 2.5 nM DNA, no Mg2+ or nucleotide listed, temperature not stated, recombinant protein, residues 360-684, protein details: SUMO tag removed (ULP1), label: 3' fluorescein-T, single-stranded DNA
T1 sequence (looked up): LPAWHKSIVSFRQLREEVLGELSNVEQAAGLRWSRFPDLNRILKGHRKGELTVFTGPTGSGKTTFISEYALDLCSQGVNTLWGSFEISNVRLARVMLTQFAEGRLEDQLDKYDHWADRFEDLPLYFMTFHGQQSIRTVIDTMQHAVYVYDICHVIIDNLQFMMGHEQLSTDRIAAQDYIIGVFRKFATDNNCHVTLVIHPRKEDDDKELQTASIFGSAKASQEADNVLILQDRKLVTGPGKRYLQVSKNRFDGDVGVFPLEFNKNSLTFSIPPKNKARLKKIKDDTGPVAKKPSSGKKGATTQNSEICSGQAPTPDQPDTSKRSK

[2] = molecular target: T2, Twinkle NTD (Homo sapiens) (UniProt Q96RR1); test: fluorescence anisotropy; conditions: 50 mM NaCl, 50 mM Tris acetate pH 7.5, 10% glycerol, 0.05% Tween-20, 0.5 mM DTT, 0 or 50 mM NaCl, 2.5 nM DNA, no Mg2+ or nucleotide listed, temperature not stated, recombinant protein, residues 43-372, protein details: SUMO tag removed (ULP1), label: 3' fluorescein-T, single-stranded DNA; for binding result: dash in table
T2 sequence (looked up): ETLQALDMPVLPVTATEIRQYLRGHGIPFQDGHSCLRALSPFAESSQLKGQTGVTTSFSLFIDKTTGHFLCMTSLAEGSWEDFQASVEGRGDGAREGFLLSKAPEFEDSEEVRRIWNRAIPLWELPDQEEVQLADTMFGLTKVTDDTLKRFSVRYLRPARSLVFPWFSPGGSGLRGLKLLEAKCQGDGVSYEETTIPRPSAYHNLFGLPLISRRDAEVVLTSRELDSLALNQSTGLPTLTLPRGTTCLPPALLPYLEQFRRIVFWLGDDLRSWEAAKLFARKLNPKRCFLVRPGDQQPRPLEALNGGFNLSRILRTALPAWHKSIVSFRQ

Sequence	Kd [1] [nM]	binding result ([2]; salt competed effectively)	Kd [2] [nM]	also measured
TGAACACT [8 nt ssDNA]	–	–	–	binding result ([1]; dash in table): no binding; binding result [2]: no binding
AACTCTTGAACACT [14 nt ssDNA]	128	no binding	–	–
TGTGTTAGTTGGGGGGTGACTGTTAAAAGT [30 nt ssDNA]	–	–	264	–
TGCTATAACTCTTGAACACT [20 nt ssDNA]	–	–	440	–
CTCTTGAACACT [12 nt ssDNA]	–	no binding	–	binding result ([1]; barely any binding, no Kd): binds more weakly
ATAACTCTTGAACACT [16 nt ssDNA]	117	no binding	–	–

No signal at the amounts used counts as a negative. At least one verdict rests on a figure or table, not on a statement of the authors. Protein sequences can lack the tags named with them. Construct, isoform or probe ends are uncertain for at least one entry. For some of these results: The comparison behind a weaker result is the experiment's own reference, which may not be listed here.
